Numbering of substitutions follows the chain as printed. These are yes or no findings as the source states them, for the method shown. In cells and extracts the contact can be indirect. Binding can be weak; no strength is given. Where a sequence is shown, tags or fusion partners need not be part of it.
What was measured:
Test in all cases: co-IP; HEK293T cells cotransfected with Halo-tagged Tulp3 and Myc-tagged hPKD2 (WT, W414G or L517R), cultured 48 h; lysis and washing buffer 20 mM Tris-HCl pH 7.4, 200 mM NaCl, 2.5 mM MgCl2, 0.5% Nonidet P-40; 16 h at 4°C; legends: precipitated with anti-Myc antibody-conjugated beads and blotted with anti-Halo; methods: anti-Halo-tag mAb with protein A/G agarose beads
[1] = target: T1, Myc-tagged hPKD2 WT (polycystin-2) (human) (UniProt Q13563)
T1 sequence: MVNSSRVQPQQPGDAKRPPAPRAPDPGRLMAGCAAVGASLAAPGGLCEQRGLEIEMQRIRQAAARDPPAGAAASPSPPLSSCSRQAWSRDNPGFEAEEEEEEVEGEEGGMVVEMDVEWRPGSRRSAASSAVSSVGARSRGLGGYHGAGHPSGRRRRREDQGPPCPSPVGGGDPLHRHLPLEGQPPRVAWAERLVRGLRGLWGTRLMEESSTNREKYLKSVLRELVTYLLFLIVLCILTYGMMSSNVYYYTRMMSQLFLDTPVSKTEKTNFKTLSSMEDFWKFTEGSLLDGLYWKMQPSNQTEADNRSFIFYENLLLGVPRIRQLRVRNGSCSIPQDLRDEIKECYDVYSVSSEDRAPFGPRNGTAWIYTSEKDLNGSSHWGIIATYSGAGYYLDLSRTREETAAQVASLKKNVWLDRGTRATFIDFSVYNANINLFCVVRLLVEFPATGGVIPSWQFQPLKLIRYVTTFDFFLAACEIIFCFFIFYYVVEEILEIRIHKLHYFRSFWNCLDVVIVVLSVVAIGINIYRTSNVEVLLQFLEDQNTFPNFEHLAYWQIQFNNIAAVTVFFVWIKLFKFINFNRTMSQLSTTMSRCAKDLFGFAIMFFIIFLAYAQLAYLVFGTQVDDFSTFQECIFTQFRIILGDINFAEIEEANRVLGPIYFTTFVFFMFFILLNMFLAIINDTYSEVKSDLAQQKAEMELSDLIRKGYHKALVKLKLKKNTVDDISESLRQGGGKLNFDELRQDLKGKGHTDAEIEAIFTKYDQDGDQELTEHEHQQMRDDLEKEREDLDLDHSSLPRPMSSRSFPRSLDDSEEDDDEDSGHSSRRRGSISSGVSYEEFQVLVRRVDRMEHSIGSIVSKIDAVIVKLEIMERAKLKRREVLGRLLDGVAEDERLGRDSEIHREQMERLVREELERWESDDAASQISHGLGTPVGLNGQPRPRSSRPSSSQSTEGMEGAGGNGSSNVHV

[2] = target: T2, Myc-tagged hPKD2 L517R mutant (polycystin-2 L517R) (human) (UniProt Q13563)
T2 sequence: T1 sequence with L517R

[3] = target: T3, Myc-tagged hPKD2 W414G mutant (polycystin-2 W414G) (human) (UniProt Q13563)
T3 sequence: T1 sequence with W414G

Measured: binding

Halo-tagged Tulp3
binds: all assays above
